PubChem BioAssay AID1053208 – Peter MacCallum Cancer Centre, 2014
The deposit covers about 17,000 reagents; this is a part drawn at random. 788 of all reagents (4.7%) count as active. 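Calls rest on z-score classes alone; an extra cut-off of viability at most 70% of control was not applied to them.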 The numbers tell different reagents against one gene apart. Not all columns of the deposit are shown. No sequences are given here.

- Test: 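Find knock-downs that sensitise mouse osteosarcoma cells to doxorubicin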 (primary screen)
- Cell system: mouse osteosarcoma cells, early-passage culture from an engineered mouse model of fibroblastic bone tumour
- Reagent: siRNA pool against mouse genes, 40 nM
- Duration: about 120 h (48 h before drug, then 72 h with drug)
- Challenge: doxorubicin 100 nM for 72 h, roughly 30-40% inhibitory dose
- Measurement: 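Viability read as ATP luminescence after 72 h of 100 nM doxorubicin or none, duplicate wells averaged, scaled to non-targeting siRNA, then expressed as robust z-scores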
- Scale: viability z-score with doxorubicin: higher = more viable cells under doxorubicin; viability z-score without drug: higher = more viable cells with knock-down alone
- Active means: 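a pool counts as active when its viability z-score with doxorubicin is -2 or below and its z-score without drug lies between -2 and 2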

The opening 4 records as a preview:
| target | reagent | combined z-score class | viability z-score with doxorubicin | viability z-score without drug | outcome |
| --- | --- | --- | --- | --- | --- |
| 1600012H06Rik (GeneID 67912) | 1 | no change with or without drug | -0.22 | 1.85 | inactive |
| Pir (GeneID 69656) | 1 | no change with or without drug | 1.12 | 0.34 | inactive |
| Or5p5 (GeneID 257919) | 1 | no change with or without drug | -1.35 | -0.51 | inactive |
| Dcc (GeneID 13176) | 1 | no change with or without drug | 1.57 | 1.18 | inactive |

Main list, repeating the preview:
| target | reagent | combined z-score class | viability z-score with doxorubicin | viability z-score without drug | outcome |
| --- | --- | --- | --- | --- | --- |
| 1600012H06Rik (GeneID 67912) | 1 | no change with or without drug | -0.22 | 1.85 | inactive |
| Pir (GeneID 69656) | 1 | no change with or without drug | 1.12 | 0.34 | inactive |
| Or5p5 (GeneID 257919) | 1 | no change with or without drug | -1.35 | -0.51 | inactive |
| Dcc (GeneID 13176) | 1 | no change with or without drug | 1.57 | 1.18 | inactive |
| Ppp1r21 (GeneID 73825) | 1 | no change with or without drug | 1.69 | 1.52 | inactive |
| Arl14ep (GeneID 212772) | 1 | no change with or without drug | 0.34 | 1.18 | inactive |
| Trhde (GeneID 237553) | 1 | no change with or without drug | 0.9 | 0.34 | inactive |
| Cd226 (GeneID 225825) | 1 | no change with or without drug | 0.34 | 1.52 | inactive |
| Eras (GeneID 353283) | 1 | no change with or without drug | 0 | 0.51 | inactive |
| Mapre2 (GeneID 212307) | 1 | no change with or without drug | -0.45 | -0.67 | inactive |
| Tinf2 (GeneID 28113) | 1 | no change with or without drug | 0.22 | 0.17 | inactive |
| Ltb4r1 (GeneID 16995) | 1 | no change with or without drug | -1.91 | 1.35 | inactive |
| Pkm (GeneID 18746) | 1 | no change with or without drug | 0.34 | -0.84 | inactive |
| C030032C09RIK | 1 | no change with or without drug | -0.45 | -1.18 | inactive |
| Or52n4 (GeneID 259051) | 1 | no change with or without drug | 0 | -0.84 | inactive |
| Ak5 (GeneID 229949) | 1 | no change with or without drug | -0.22 | 0.17 | inactive |
| Ocstamp (GeneID 74614) | 1 | no change with or without drug | -0.22 | -0.51 | inactive |
| Erp29 (GeneID 67397) | 1 | no change with or without drug | 0 | 0.67 | inactive |
| Irf2bp1 (GeneID 272359) | 1 | low cell count with doxorubicin only | -2.25 | -1.01 | active |
| Lamc3 (GeneID 23928) | 1 | high cell count without drug only | 1.12 | 2.19 | inactive |
| Adamts16 (GeneID 271127) | 1 | no change with or without drug | -1.24 | 0 | inactive |
| Or4x13 (GeneID 258330) | 1 | no change with or without drug | 0.79 | 0.84 | inactive |
| Or4x13 (GeneID 258330) | 2 | no change with or without drug | 0.9 | -1.18 | inactive |
| Cdh16 (GeneID 12556) | 1 | no change with or without drug | 0.22 | -0.51 | inactive |
| Or3a1d (GeneID 258704) | 1 | no change with or without drug | -1.01 | -0.17 | inactive |
| Drap1 (GeneID 66556) | 1 | no change with or without drug | 1.12 | -0.84 | inactive |
| Tssk2 (GeneID 22115) | 1 | no change with or without drug | -1.57 | -1.01 | inactive |
| Nupr1 (GeneID 56312) | 1 | low cell count with and without drug | -2.7 | -4.05 | inactive |
| Or1b1 (GeneID 259053) | 1 | no change with or without drug | -1.35 | -1.52 | inactive |
| Pilrb1 (GeneID 170741) | 1 | no change with or without drug | 0.34 | -1.35 | inactive |
| Sycp3 (GeneID 20962) | 1 | high cell count without drug only | 1.46 | 2.02 | inactive |
| Tbca (GeneID 21371) | 1 | no change with or without drug | -0.22 | 0 | inactive |
| Ncbp3 (GeneID 66874) | 1 | no change with or without drug | -1.12 | 0.51 | inactive |
| Tex13a (GeneID 67944) | 1 | no change with or without drug | 0 | 0.17 | inactive |
